Here are results for 68 sequences from PubChem BioAssay AID1508600 (Functional Genomics Laboratory (NCATS/FGL), 2020).

Screen size: about 53,000 sequences; about 3,700 (7%) were called active.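 Rule for the calls: active = gene knockdowns whose robust z-score for IL-1 alpha signal is at least 2 or at most -2, so actives lie on both sides; inactive = the rest.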 The list shows a part of the results.

The nature of the experiment: Components of the Cytosolic LPS Sensing Pathway: Gene Identification via Genome-wide siRNA Screen.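 Note: robust z of the log signal after scaling to non-targeting control siRNA wells of the plate.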 Conditions: RAW264.7 macrophages, IL-1a HTRF, actives lie on both sides, screened at 100 nM (by protocol), cells primed 5 h with Pam3CSK4 first. An outline of the steps: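 Knockdown: 100 nM siRNA, 48h, RAW264.7. Stimulation: Pam3CSK4 5 h, then LipidA via TransIT-TKO 24 h. Output: supernatant IL-1a HTRF, negative-control-normalized, log robust z-score; viability by CellTiter-Glo.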
In general terms: Time-resolved FRET reads energy transfer from a long-lived donor to a nearby acceptor.
As for GGAUAAUUAUAGGAAGAGCTT against Ncapd3, the z-score was inactive: -0.507.

Take GCCGUUGAGUAUAAAACUCTT against Stfa1: the z-score was inactive: -1.16.

Take GGUCCUUAUCGCUUGGAUGTT against Vwa8: the z-score was inactive: -0.202.

Turning to GGGAUUUGCCAAAGAAUAGTT against AI597479, the z-score is inactive: 0.875.

GGAAUCGGUGGCCAUCAAUTT against Olfr771: the z-score was inactive: 0.458.

With GGAAUGGUUAUGAAUUUGATT against Pts, the z-score was inactive: 0.0181.

For GCAAGUCAUGCGAAUACAATT against Chrdl1, the z-score is inactive: 0.18.

Turning to GGUGAGAAGAUGUCUCUUATT against Olfr103, the z-score is inactive: -0.662.

In the case of GGAAGAAACUGAGAAACUGTT against Fam205c, the z-score is inactive: 0.48.

Take CCAUGGACUUUCUCGAAGATT against Ceacam11: the z-score was inactive: 0.612.

As for GGGCGAGUUCAACUGAGACTT against Hapln3, the z-score is inactive: -0.876.

Turning to GCCAUGUGUCUCACAAGUCTT against Sprr1b, the z-score is inactive: -0.0338.

As to GGAAACAAGGAUAUUCUUUTT against Fanca, the z-score is inactive: 0.859.

CCAUUACACAAAGUUUUGCTT against Stard6: the z-score was inactive: 0.88.

With GCCAUUGGUUGGGAUAAACTT against Fancl, the z-score is inactive: 0.513.

For GCAUCAUUAGUGGUGUAACTT against Aph1a, the z-score is inactive: -0.401.

Turning to CGCCUACUGCUUCAGGAUATT against Cgrrf1, the z-score was inactive: 1.27.

For CCACCUUCGGUUCAACUAUTT against Gal3st2, the z-score was inactive: 1.95.

In the case of GGAGUUAAUCAAAGCUUUGTT against Rprd1b, the z-score is inactive: 1.01.

With GGUGGGCUACGAACUAAAGTT against Prpf31, the z-score was inactive: 0.664.

Take GGAGAUCCACUUCCUCAAGTT against B3gnt7: the z-score was inactive: -0.386.

Turning to GGAUGAAAUGGAAGAAAAUTT against Barx1, the z-score was inactive: -0.564.

With GACUAGGACACUGACCCUCTT against Ifna12, the z-score was inactive: -0.0354.

As to CCACCUACCAAAGCAGAAGTT against Cep112, the z-score is inactive: -1.71.

As to GGAUUACCUAAAUUUAGGATT against Hfm1, the z-score was inactive: 0.14.

Regarding GCACAGAAAUAUUAAAGUCTT against Foxp4, the z-score was inactive: -1.7.

On to AAAGUAAGAGACUACGCUCTT against H2-Q2, for which the z-score was inactive: 1.89.

For GGGAGAAGGUAAGUGCAUGTT against Golga7b, the z-score was inactive: -0.343.

For GGCAAAUAUAUCCUCUUUGTT against Gpx3, the z-score is inactive: 0.213.

In the case of GAUGCUAUCUGGCUUUCUUTT against Olfr981, the z-score was inactive: -0.889.

Consider GGAAGACUGGGAAUAUAUCTT against Gga3, for which the z-score was inactive: -1.69.

As for GCCUCGUGUUGAAUCUUAATT against Pmp22, the z-score is inactive: 0.411.

In the case of GCCCAAAAAAGCUCAGAGUTT against Brcc3, the z-score was inactive: -0.351.

With CCGGGCAAUUCAGCUGAACTT against Igsf3, the z-score is inactive: -0.872.

With GUACUUUCCGCUGUUCCUCTT against Ltc4s, the z-score is inactive: -0.736.

As to GCGAAGUUCCUGAGAUGGATT against Irf8, the z-score was inactive: 0.342.

Turning to CCUGGAGUACAUAAAAGAUTT against Sh2d1a, the z-score was inactive: 0.0604.

On to CCCACAGUGCAAAAAUGACTT against Olfr663, for which the z-score is active: -2.26.

For GGCUUGUUCCUGUUCCUCUTT against Ndufc2, the z-score was inactive: -0.716.

As to GGUGGUAACCAAUCAUUACTT against Cd200r1, the z-score is inactive: -0.296.

For the sequence CCUUUGUUACCACCACCAUTT against Olfr1331, the z-score was inactive: 1.46.

In the case of GGAAAUCAAGGAGCAGGAATT against S100b, the z-score is inactive: 0.418.

GCUGAGCAUCCAGUGUAGUTT against A3galt2: the z-score was inactive: 0.144.

Consider GGUUUGAAGAUGAUGCCUCTT against Nfkbil1, for which the z-score was inactive: -0.848.

On to GGAAUUCAUUGAGUCUUGUTT against Kcnip2, for which the z-score was inactive: 0.741.

Take CGACAGCAAAGUGGUUAAGTT against Upk2: the z-score was inactive: 0.145.

GGCUUUCUCCCAGCAAUAGTT against Scrt1: the z-score is inactive: -1.97.

As for GGGAACAAUCAAAAUUGGATT against Mta3, the z-score is inactive: -0.207.

GGGAAUACAUUUUAUCUUCTT against Cpox: the z-score is inactive: -0.16.

For GGCAAUGCUGUCCUACUAUTT against Map2k5, the z-score is inactive: -1.19.

On to CCACUAUGGCGACCAGAUUTT against Mfap2, for which the z-score is inactive: 0.0375.

Regarding GCUAUGUGAAUUUGUAUGATT against Parp11, the z-score is inactive: 0.398.

For GGCUGUUGUCAAUCCAGUUTT against Krtap5-4, the z-score was inactive: 0.686.

GGCAGUCACACAGUUUGAATT against Bend6: the z-score is inactive: 0.129.

Consider GGUUGUAGGAGAGGUAGAGTT against Sh3kbp1, for which the z-score was inactive: 1.17.

GCUAGGAACGAGGAGCUAATT against Prrt3: the z-score is inactive: 1.07.

Consider GGUCGAAGUAUUGGAAAAUTT against Hesx1, for which the z-score was inactive: -1.71.

Take GCUCUGUUAAGGAAGAACATT against Safb2: the z-score was active: 2.02.

As for CCUACCUCACCGUAACUGUTT against Celsr1, the z-score is inactive: -1.22.

As for GCAAAUCAUUUAGGACCCATT against Amer2, the z-score was active: -2.54.

For GGGUGCUACAAAAUUUGGATT against Arfgap1, the z-score was inactive: 1.46.

Regarding CCAUUAUAGAUCGUCAAUATT against Nlrp9c, the z-score is inactive: -1.

As for GGACCUGAGAGUUGUUUUGTT against Faim, the z-score is inactive: 0.862.

Turning to GGAAGUAAAAGAGGCUUUUTT against Olfr432, the z-score was inactive: 0.198.

For the sequence GGGAGAACAGUGUUCAGAGTT against Bhlha15, the z-score is inactive: -0.151.

For the sequence CCUGGUAUCCAAGAGGAAGTT against Myt1, the z-score was active: 2.52.

On to CCGAAUCUGUCGUCAAGGUTT against Trem3, for which the z-score was inactive: 0.552.

GGAGUUAUUCUGUUCUCUCTT against Efcab5: the z-score is inactive: 0.119.
